According to publication PMC3163269:
Results are given in words; binding and its absence hold for the method and conditions named. Some binding calls cover weakened binding; strength is not graded here. For part of these data: Tags and fused reporters may be left off the sequences shown.

How the values were obtained:
[1] = molecular target: Thermotoga maritima MreB, wild-type, untagged (pFE349) (Thermotoga maritima) (UniProt Q9WZ57); assay: electron cryotomography of protein on lipid vesicles; vesicles (E. coli total lipid extract) mixed with 1 mg/ml MreB in polymerization buffer with AMP-PNP, frozen immediately; both purified
[2] = molecular target: Thermotoga maritima MreB, wild-type, untagged (pFE349) (Thermotoga maritima) (UniProt Q9WZ57); assay: negative stain electron microscopy with single-particle analysis; TmMreB 0.2 mg/ml in a droplet on a lipid monolayer (E. coli polar lipid extract) on a carbon-coated nickel grid; polymerization buffer 100 mM Tris pH 7.4, 100 mM NaCl, 3 mM MgCl2, 1.5 mM AMP-PNP; 2% uranyl acetate; both purified
[3] = molecular target: Thermotoga maritima MreB L93A/F94A (Thermotoga maritima) (UniProt Q9WZ57); assay: polymerization assay analyzed by negative stain electron microscopy; data not shown; both purified

| binding [1] | binding [2] | binding [3] | Binder |
| --- | --- | --- | --- |
| binds | binds | – | Thermotoga maritima MreB, wild-type, untagged (pFE349) (protein, UniProt Q9WZ57 1-336) MLRKDIGIDLGTANTLVFLRGKGIVVNEPSVIAIDSTTGEILKVGLEAKNMIGKTPATIKAIRPMRDGVIADYTVALVMLRYFINKAKGGMNLFKPRVVIGVPIGITDVERRAILDAGLEAGASKVFLIEEPMAAAIGSNLNVEEPSGNMVVDIGGGTTEVAVISLGSIVTWESIRIAGDEMDEAIVQYVRETYRVAIGERTAERVKIEIGNVFPSKENDELETTVSGIDLSTGLPRKLTLKGGEVREALRSVVVAIVESVRTTLEKTPPELVSDIIERGIFLTGGGSLLRGLDTLLQKETGISVIRSEEPLTAVAKGAGMVLDKVNILKKLQGAG |
| – | – | binds | Thermotoga maritima MreB L93A/F94A (protein, UniProt Q9WZ57 1-336) MLRKDIGIDLGTANTLVFLRGKGIVVNEPSVIAIDSTTGEILKVGLEAKNMIGKTPATIKAIRPMRDGVIADYTVALVMLRYFINKAKGGMNAAKPRVVIGVPIGITDVERRAILDAGLEAGASKVFLIEEPMAAAIGSNLNVEEPSGNMVVDIGGGTTEVAVISLGSIVTWESIRIAGDEMDEAIVQYVRETYRVAIGERTAERVKIEIGNVFPSKENDELETTVSGIDLSTGLPRKLTLKGGEVREALRSVVVAIVESVRTTLEKTPPELVSDIIERGIFLTGGGSLLRGLDTLLQKETGISVIRSEEPLTAVAKGAGMVLDKVNILKKLQGAG |
